No constants are given. Whether binding was seen depends on the method and setting. Binding can be weak; no strength is given. Tags and fused reporters may be left off the sequences shown. For some assays here: In cells and extracts the contact can be indirect.
B1: WRKY20 fused with the N-terminal part of EYFP (protein, UniProt Q93WV0 1-557)
chain: MNPQANDRKEFQGDCSATGDLTAKHDSAGGNGGGGARYKLMSPAKLPISRSTDITIPPGLSPTSFLESPVFISNIKPEPSPTTGSLFKPRPVHISASSSSYTGRGFHQNTFTEQKSSEFEFRPPASNMVYAELGKIRSEPPVHFQGQGHGSSHSPSSISDAAGSSSELSRPTPPCQMTPTSSDIPAGSDQEESIQTSQNDSRGSTPSILADDGYNWRKYGQKHVKGSEFPRSYYKCTHPNCEVKKLFERSHDGQITDIIYKGTHDHPKPQPGRRNSGGMAAQEERLDKYPSSTGRDEKGSGVYNLSNPNEQTGNPEVPPISASDDGGEAAASNRNKDEPDDDDPFSKRRRMEGAMEITPLVKPIREPRVVVQTLSEVDILDDGYRWRKYGQKVVRGNPNPRSYYKCTAHGCPVRKHVERASHDPKAVITTYEGKHDHDVPTSKSSSNHEIQPRFRPDETDTISLNLGVGISSDGPNHASNEHQHQNQQLVNQTHPNGVNFRFVHASPMSSYYASLNSGMNQYGQRETKNETQNGDISSLNNSSYPYPPNMGRVQSGP
B2: AD-MPK3 (enzyme, UniProt Q39023 1-370)
chain: MNTGGGQYTDFPAVETHGGQFISYDIFGSLFEITSKYRPPIIPIGRGAYGIVCSVLDTETNELVAMKKIANAFDNHMDAKRTLREIKLLRHLDHENIIAIRDVVPPPLRRQFSDVYISTELMDTDLHQIIRSNQSLSEEHCQYFLYQLLRGLKYIHSANIIHRDLKPSNLLLNANCDLKICDFGLARPTSENDFMTEYVVTRWYRAPELLLNSSDYTAAIDVWSVGCIFMELMNRKPLFPGKDHVHQMRLLTELLGTPTESDLGFTHNEDAKRYIRQLPNFPRQPLAKLFSHVNPMAIDLVDRMLTFDPNRRITVEQALNHQYLAKLHDPNDEPICQKPFSFEFEQQPLDEEQIKEMIYQEAIALNPTYG
B3: MPK3 fused with the N-terminal part of EYFP (enzyme, UniProt Q39023 1-370)
chain: B2 chain
B4: GST-MPK3 fusion protein (enzyme, UniProt Q39023 1-370)
chain: B2 chain

Legend:
[1] = target: T1, WRKY20 (BiFC fusion used with MPK3 or MPK6) (Arabidopsis thaliana) (UniProt Q93WV0); assay: split reporter
T1 sequence: B1 chain

[2] = target: T2, YFP-MPK3 (Arabidopsis thaliana) (UniProt Q39023); assay: co-IP
T2 sequence: B2 chain

[3] = target: βC1^S33D fused with the C-terminal part of EYFP (tomato yellow leaf curl China betasatellite (TYLCCNB)); assay: split reporter
[4] = target: βC1 fused with the C-terminal part of EYFP (tomato yellow leaf curl China betasatellite (TYLCCNB)); assay: split reporter
[5] = target: BD-βC1 (tomato yellow leaf curl China betasatellite (TYLCCNB)); assay: two-hybrid
[6] = target: His-βC1 fusion protein (tomato yellow leaf curl China betasatellite (TYLCCNB)); assay: pull-down

Molecule | binding [3] | binding [4] | also measured
βC1 (coexpressed in the modified BiFC assay) | – | – | binding [1]: binds
βC1-myc | – | – | binding [2]: binds
B1 | binds | binds | –
B2 | – | – | binding [5]: binds
B3 | binds | binds | –
B4 | – | – | binding [6]: binds

— publication doi:10.1101/2020.06.17.158212
